Assay results taken from patent US6617361B2, “Behavior chemotherapy” (Be Able, LLC, priority 1999, dated 2003).

What was measured:
[1] = system: Patient six; assay: Protocol and results with patient six, Example 10 (fibromyalgia, obesity); assay type: in vivo, human; conditions: current medication includes Ionamin 15 mg q.a.m. and Aricept one-quarter pill MWF
Text: This longstanding patient was first seen in 1988 for fibromyalgia. They are also bothered by chronic low back pain, mitral valve prolapse, sleep disturbance, a family history of coronary disease, and obesity. They are 5′8″ tall, 205½ lb. […] Their problem list contained the additional diagnoses of GERD, carpal tunnel syndrome, suspected mitral valve prolapse, and acne rosacea.
Their medication list included Synthroid, Estratest, Klonopin, Prilosec, Limbitrol, Provera, Premarin and Zostrix cream. […] They frequented health food stores, as well as chiropractors for relief.
Although greatly fearful of potential long-term problems, the patient finally agreed to the institution of a change in their medications and started therapy which was a major change in their medicines December 1995. […] At that time the patient's weight was in the mid 180s. Their other medications were continued.
This was an independent patient-initiated decision.

[2] = system: Patient three; assay: Protocol and results with patient three (chronic fatigue)
Text: Longstanding patient in my practice who […] developed a viral illness followed by chronic fatigue. This problem persisted, numerous evaluations and consultations were obtained, in excess of 20 physicians were consulted, and the patient was followed for nine months in a major medical center with the diagnosis of chronic Lyme disease. Prior to this their symptoms included a compendium of mild lifelong autonomic dysfunction including chronic bladder and urethral problems which necessitated urological surgery in the distant past. They had not retired from work but had taken long leaves of absence and found it difficult to keep up their normal work schedule as a social worker, something they had done for many years. In the past for their autonomic dysfunction they had been placed on Depakote, Wellbutrin, and amitriptyline and they were on this when they became ill.
Their other medical problems included mitral valve prolapse with click and no murmur but no symptoms, a history of endometriosis, occasional kidney stones, and an ovarian cyst.
Therapy was begun on May 26, 1999. On Jun. […] They were still on 12.5 mg of Elavil or one-half pill and some minocin for acne, Wellbutrin from their psychiatrist, and Zithromax, an antibiotic started by other physicians for the treatment of Lyme disease. […]

[3] = system: Patient four; assay: Protocol and results with patient four (morbid obesity, cardiomyopathy); assay type: in vivo, human
Description: This person has been in the practice for several years. Their medical problems surround a cardiomyopathy with a low cardiac output state and heart failure. They also have a history of hypertension, hypothyroidism on therapy, and morbid obesity.
Medication alterations continued over the next several months with increasing Ionamin to 30 mg. Hytrin was added at 2 mg because of prostatic symptoms and in November Pondimin was added.
Adipex-P 37.5 one-half was added to their medications. […]

[4] = system: Patient two; assay: Protocol and results with patient two (leg pain, absence of energy); assay type: in vivo, human; conditions: August 1999, from 143 lb November 1998; Celexa 10 mg + Adipex-P 37.5 one-half (+ atenolol 25 mg), later with Aricept 1.25 mg three times weekly
Description: First evaluated this 5′4″, ectomorphic, single person who was […] at the time.
On Nov. […] They were started on Celexa 10 mg, Adipex-P 37.5 one-half tablet, and atenolol 25 mg all in the morning.
They will keep in touch with me as they will take each instruction for four doses and then go to the next.

COc1cc2c(cc1OC)C(=O)C(CC1CCN(Cc3ccccc3)CC1)C2 (stereo not shown) [Aricept, donepezil]
chronic fatigue remaining, of its original [1]: ~20% | side effect noted by patient ([2]; combination reduced to Adipex-P 37.5 one-half, Celexa one-quarter, Aricept one-quarter, fenfluramine one-quarter pill q.a.m.): some difficulty sleeping | patient-reported status ([2]; within two days, combination Adipex-P 37.5 mg one-half b.i.d. + Celexa 10 mg q.d. + fenfluramine 10 mg q.d. + Aricept one-half q.d.): life had been transformed back towards its normal status | improvement (weight, fatigue) ([3]; Adipex-P 37.5 one-half + Celexa 10 mg twice weekly + Aricept one-quarter pill MWF, in the absence of fenfluramine): essentially no improvement | cardiac index remeasured ([3]; combination Adipex-P 37.5 one-half + Zoloft 25 mg + Aricept 1.25 mg + fenfluramine 5 mg (+ atenolol 12.5 mg)): even more improved than previously | body weight the next month ([3]; from 235 lb June 1999, combination Adipex-P 37.5 one-half + Zoloft 25 mg + Aricept 1.25 mg + fenfluramine 5 mg (+ atenolol 12.5 mg)): 218 | body weight [4]: 127 lb
